# Measured values as given in PubChem BioAssay AID330 (DTP/NCI, 2004).
# The list is a part of this screen's results and no random one: it is rich in T/C values a quarter to a half above the control, in often repeated tests (any T/C) and in doses without a T/C. Further doses and runs are listed elsewhere. T/C gives the treated animals as a percentage of the vehicle group. Some entries give survivors of the animals treated and no T/C: the source files T/C as zero there, which appears to mark a toxic dose or a test without result, not a measured value. Some doses without a T/C left all or most animals alive at the check, yet need not have been tolerated: the source hardly ever lists a survival T/C far under the control, and the zero likely stands for such cases as well. Survivors were counted at the toxicity check, usually on the fifth day, unless a day is given; later deaths do not show. Schedules are NCI's codes, read here as Q, the interval in days (D) or hours (H), X, the number of doses. Some doses were run more than once; the values are given in rising order. Additions like (4×) say how often a value occurs here. For survival time, this PubChem deposit counts one and a half times the control or more as active, and values a quarter to a half above the control carry no call in these data; other NCI protocols may use other cut-offs. Some T/C values carry the count of animals alive at the toxicity check (mostly the fifth day); without a count, all were alive then.
# Test system: P388 leukemia ip, CD2F1 mice, survival T/C
# Assay: NCI In Vivo Anticancer Drug Screen. Data for tumor model P388 Leukemia (intraperitoneal) in CD2F1 (CDF1) mice
# Conditions: T/C endpoint: median survival time, higher T/C = longer survival
# [1] = dose: 100.0 mg/kg/injection, schedule: Q01DX009 (ip), vehicle: saline
# [2] = dose: 200.0 mg/kg/injection, schedule: Q01DX009 (ip), vehicle: saline
# [3] = dose: 100.0 mg/kg/injection, schedule: Q01DX005 (ip), vehicle: saline with Tween-80
# [4] = dose: 200.0 mg/kg/injection, schedule: Q01DX005 (ip), vehicle: saline with Tween-80
structure (smiles),measurement,setting,value
CCN(CC)c1ccc(Pc2ccc(N(CC)CC)cc2)cc1,survivor count,[1],6 of 6
CC1(C)CSC(=S)SC1,survivor count,"dose: 200.0 mg/kg/injection, schedule: Q04DX002 (ip), vehicle: saline with Tween-80",0 of 6
same,survivor count,"dose: 400.0 mg/kg/injection, schedule: Q04DX002 (ip), vehicle: saline with Tween-80",0 of 6
O=C(O)c1[nH]c(=O)[nH]c(=O)c1F,T/C,"dose: 2.0 mg/kg/injection, schedule: Q01DX009 (ip), vehicle: saline",127 % of control
same,T/C,"dose: 4.0 mg/kg/injection, schedule: Q01DX009 (ip), vehicle: saline",145 % of control
same,T/C,"dose: 8.0 mg/kg/injection, schedule: Q01DX009 (ip), vehicle: saline",131 % of control
same,T/C,"dose: 10.0 mg/kg/injection, schedule: Q01DX010 (ip), vehicle: saline",135 % of control [5 of 6 alive]
same,survivor count,"dose: 20.0 mg/kg/injection, schedule: Q01DX010 (ip), vehicle: saline",5 of 6
CCCCCCCCCCCCCCCCCCCC[N+]1([O-])CCOCC1,survivor count,[1],6 of 6
same,survivor count,[2],4 of 6
CCC1(O)CC2CN(CCc3c([nH]c4ccccc34)C(C(=O)OC)(c3cc4c(cc3OC)N(C)C3C(O)(C(=O)NCCSSCCNC(=O)C5(O)C(O)C6(CC)C=CCN7CCC8(c9cc(C%10(C(=O)OC)CC%11CN(CCc%12c%10[nH]c%10ccccc%12%10)CC(O)(CC)C%11)c(OC)cc9N(C)C58)C76)C(O)C5(CC)C=CCN6CCC43C65)C2)C1 (configuration not stated),T/C,"dose: 0.09 mg/kg/injection, schedule: Q04DX003 (ip), vehicle: saline",136 % of control
same,survivor count,"dose: 0.8 mg/kg/injection, schedule: Q01DX009 (ip), vehicle: saline",8 of 8
same,survivor count,"dose: 3.0 mg/kg/injection, schedule: Q04DX003 (ip), vehicle: saline",6 of 8 and 5 of 6
O=C(Nc1cccc2ccccc12)ON1C(=O)c2ccccc2C1=O,survivor count,[3],5 of 6
same,survivor count,[4],"1 of 5, 3 of 6, 3 of 5"
same,survivor count,"dose: 400.0 mg/kg/injection, schedule: Q01DX005 (ip), vehicle: saline with Tween-80",0 of 5 (2×) and 0 of 6
N#Cc1nc(CC(=O)c2ccccn2)c(CC(=O)c2ccccn2)nc1C#N,survivor count,"dose: 240.0 mg/kg/injection, schedule: Q01DX005 (ip), vehicle: saline with Tween-80",0 of 6
CC(=O)C[n+]1ccccc1-c1ccccc1C,survivor count,[3],0 of 5
same,survivor count,[4],0 of 5
C=C1C[C@@]2(OC)OCC[C@H]3C(C)=CCC(C1=O)[C@]32C(=O)OC (some centres not stated),survivor count,[4],2 of 6
CC(C)(C)NC(=O)N1C2C3CCC(C)(OC3(C)C)C21 (configuration not stated),survivor count,[4],0 of 6
O=C(Nc1cc(-c2ccccc2)nn1-c1ccccc1)c1ccc(Cl)cc1,survivor count,"dose: 120.0 mg/kg/injection, schedule: Q01DX005 (ip), vehicle: saline with Tween-80",6 of 6
CC1(COCCOCC2(C)CO2)CO1 (configuration not stated),T/C,[2],131 % of control
same,T/C,"dose: 264.0 mg/kg/injection, schedule: Q01DX009 (ip), vehicle: saline sonified",145 % of control
CC(=O)Nc1cc2c(cc1Br)-c1ccccc1C2O (configuration not stated),survivor count,"dose: 5.0 mg/kg/injection, schedule: Q01DX009 (ip), vehicle: saline with Tween-80",6 of 6
same,survivor count,"dose: 10.0 mg/kg/injection, schedule: Q01DX009 (ip), vehicle: saline with Tween-80",6 of 6
same,survivor count,"dose: 100.0 mg/kg/injection, schedule: Q04DX003 (ip), vehicle: saline with Tween-80",0 of 6
same,survivor count,"dose: 200.0 mg/kg/injection, schedule: Q04DX003 (ip), vehicle: saline with Tween-80",0 of 6
same,survivor count,"dose: 400.0 mg/kg/injection, schedule: Q04DX003 (ip), vehicle: saline with Tween-80",0 of 6
N=c1c2ccccc2nc2n1CCCCC2,survivor count,"dose: 100.0 mg/kg/injection, schedule: Q04DX003 (ip), vehicle: saline",5 of 6
CCC[CH2][Sn]([CH2]CCC)([CH2]CCN(C)C)[CH2]CCN(C)C,survivor count,"dose: 200.0 mg/kg/injection, schedule: Q01DX009 (ip), vehicle: saline with Tween-80",0 of 6
CCCCOCCOCCOCCOCCCN1C(=O)C2C3C=CC(C3)C2C1=O (configuration not stated),survivor count,"dose: 200.0 mg/kg/injection, schedule: Q01DX005 (ip), vehicle: Klucel (hydroxypropylcellulose) (HPC)",0 of 5
